In the supplement of paper PMC6411743 one finds NP40-soluble protein abundance data, which are given here for 38 targets.

Chains of the proteins cited; added tags and fusions are not shown. Lines headed by an entry give the natural chain unless they say otherwise; changes in a name come on top.
UniProt P14649: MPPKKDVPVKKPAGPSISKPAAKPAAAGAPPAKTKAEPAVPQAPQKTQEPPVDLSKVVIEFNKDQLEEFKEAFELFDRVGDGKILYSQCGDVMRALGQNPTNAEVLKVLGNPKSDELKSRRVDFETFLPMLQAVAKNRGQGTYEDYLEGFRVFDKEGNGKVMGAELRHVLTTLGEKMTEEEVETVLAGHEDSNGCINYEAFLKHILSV
UniProt P06400: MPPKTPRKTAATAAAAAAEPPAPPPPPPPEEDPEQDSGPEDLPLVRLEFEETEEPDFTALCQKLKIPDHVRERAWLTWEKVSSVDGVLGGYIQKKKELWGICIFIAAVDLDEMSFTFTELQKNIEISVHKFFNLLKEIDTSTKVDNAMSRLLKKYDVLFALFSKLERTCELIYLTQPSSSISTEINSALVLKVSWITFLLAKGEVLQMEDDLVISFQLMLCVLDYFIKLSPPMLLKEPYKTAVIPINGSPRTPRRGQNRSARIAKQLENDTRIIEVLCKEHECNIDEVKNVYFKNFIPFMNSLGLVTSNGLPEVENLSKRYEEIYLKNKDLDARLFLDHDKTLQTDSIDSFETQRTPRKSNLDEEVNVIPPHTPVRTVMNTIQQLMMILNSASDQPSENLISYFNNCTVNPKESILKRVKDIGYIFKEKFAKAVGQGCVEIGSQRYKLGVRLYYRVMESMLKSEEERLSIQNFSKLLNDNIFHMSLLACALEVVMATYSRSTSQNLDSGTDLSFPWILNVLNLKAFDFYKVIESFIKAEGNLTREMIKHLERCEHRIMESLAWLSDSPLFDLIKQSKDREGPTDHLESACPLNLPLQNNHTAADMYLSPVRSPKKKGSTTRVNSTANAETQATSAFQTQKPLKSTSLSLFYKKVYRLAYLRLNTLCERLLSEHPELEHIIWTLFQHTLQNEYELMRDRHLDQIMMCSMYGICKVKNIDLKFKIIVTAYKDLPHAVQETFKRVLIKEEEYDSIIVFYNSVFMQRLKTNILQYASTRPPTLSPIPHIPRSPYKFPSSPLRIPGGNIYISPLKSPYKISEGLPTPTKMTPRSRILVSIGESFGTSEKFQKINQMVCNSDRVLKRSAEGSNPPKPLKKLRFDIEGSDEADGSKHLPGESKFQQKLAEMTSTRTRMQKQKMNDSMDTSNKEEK
UniProt O95757: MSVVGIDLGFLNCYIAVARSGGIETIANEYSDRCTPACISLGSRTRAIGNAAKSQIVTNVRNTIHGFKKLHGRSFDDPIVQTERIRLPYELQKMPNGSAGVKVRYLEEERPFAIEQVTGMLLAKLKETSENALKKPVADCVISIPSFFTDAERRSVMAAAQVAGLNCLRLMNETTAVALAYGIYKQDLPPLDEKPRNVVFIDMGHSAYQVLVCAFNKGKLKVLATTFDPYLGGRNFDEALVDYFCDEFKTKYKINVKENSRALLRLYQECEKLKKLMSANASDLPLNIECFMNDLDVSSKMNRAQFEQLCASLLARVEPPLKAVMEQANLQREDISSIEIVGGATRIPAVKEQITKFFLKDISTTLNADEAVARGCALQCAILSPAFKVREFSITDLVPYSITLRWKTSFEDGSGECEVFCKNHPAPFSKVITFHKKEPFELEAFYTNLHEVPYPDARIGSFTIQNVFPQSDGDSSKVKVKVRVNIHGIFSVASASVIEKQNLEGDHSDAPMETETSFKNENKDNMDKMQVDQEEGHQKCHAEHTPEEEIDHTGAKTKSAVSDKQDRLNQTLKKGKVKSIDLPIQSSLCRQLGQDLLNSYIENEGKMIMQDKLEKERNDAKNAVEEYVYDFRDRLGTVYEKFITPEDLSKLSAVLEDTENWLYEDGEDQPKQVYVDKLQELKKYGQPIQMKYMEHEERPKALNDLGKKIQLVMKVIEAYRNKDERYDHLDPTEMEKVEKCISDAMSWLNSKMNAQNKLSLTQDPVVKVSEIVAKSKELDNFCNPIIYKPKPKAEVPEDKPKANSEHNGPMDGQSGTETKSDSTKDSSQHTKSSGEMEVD
UniProt P14174: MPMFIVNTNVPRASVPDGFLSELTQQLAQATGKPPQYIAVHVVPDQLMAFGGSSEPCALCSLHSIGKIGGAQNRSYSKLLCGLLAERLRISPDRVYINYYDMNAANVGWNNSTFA
UniProt P12956: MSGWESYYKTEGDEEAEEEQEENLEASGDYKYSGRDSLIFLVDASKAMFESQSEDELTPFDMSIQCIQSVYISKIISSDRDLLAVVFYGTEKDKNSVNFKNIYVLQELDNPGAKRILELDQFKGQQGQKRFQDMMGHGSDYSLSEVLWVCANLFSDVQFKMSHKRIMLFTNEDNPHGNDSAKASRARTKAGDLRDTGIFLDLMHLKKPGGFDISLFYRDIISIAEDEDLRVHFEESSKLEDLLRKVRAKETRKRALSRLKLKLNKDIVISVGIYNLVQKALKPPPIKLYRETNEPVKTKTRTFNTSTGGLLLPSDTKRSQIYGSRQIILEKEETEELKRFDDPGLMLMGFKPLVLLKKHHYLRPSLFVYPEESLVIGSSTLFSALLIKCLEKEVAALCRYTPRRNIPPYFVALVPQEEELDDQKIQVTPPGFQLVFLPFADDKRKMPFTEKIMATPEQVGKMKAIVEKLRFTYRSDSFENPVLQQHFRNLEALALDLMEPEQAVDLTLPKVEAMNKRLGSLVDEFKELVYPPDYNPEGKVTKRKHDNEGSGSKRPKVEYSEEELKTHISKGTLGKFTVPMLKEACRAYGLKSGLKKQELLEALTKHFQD
UniProt P13716: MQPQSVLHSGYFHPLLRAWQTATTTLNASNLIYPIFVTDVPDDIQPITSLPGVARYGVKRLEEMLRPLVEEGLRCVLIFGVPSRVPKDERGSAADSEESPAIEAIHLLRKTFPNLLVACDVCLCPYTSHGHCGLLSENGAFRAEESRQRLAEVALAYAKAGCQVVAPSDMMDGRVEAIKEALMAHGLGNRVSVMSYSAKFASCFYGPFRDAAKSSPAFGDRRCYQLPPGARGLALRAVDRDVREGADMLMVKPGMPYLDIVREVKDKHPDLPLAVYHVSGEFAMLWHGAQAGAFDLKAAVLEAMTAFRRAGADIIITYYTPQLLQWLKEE
UniProt P14859: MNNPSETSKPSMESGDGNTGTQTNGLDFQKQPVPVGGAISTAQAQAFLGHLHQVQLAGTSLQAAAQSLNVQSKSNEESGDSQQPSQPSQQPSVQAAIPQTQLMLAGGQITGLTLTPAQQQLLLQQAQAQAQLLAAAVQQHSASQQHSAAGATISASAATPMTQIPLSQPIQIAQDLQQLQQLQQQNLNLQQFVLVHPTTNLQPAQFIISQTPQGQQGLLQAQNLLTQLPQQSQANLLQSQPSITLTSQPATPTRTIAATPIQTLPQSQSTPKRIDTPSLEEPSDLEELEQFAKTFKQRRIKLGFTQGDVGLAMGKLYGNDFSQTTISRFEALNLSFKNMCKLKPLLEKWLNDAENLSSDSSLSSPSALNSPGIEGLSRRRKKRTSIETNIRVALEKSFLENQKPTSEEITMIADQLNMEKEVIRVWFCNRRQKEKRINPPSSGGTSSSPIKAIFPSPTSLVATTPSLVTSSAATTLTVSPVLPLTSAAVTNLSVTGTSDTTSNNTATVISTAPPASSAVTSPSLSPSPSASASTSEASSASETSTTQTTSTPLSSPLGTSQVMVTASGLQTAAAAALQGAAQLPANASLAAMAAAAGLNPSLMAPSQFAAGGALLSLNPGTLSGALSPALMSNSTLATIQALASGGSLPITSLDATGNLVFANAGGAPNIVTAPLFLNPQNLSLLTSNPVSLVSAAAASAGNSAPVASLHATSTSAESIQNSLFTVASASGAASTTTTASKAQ
UniProt P09669, whole entry: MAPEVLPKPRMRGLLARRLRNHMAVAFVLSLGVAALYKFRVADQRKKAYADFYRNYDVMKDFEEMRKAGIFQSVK
UniProt P10636, whole entry: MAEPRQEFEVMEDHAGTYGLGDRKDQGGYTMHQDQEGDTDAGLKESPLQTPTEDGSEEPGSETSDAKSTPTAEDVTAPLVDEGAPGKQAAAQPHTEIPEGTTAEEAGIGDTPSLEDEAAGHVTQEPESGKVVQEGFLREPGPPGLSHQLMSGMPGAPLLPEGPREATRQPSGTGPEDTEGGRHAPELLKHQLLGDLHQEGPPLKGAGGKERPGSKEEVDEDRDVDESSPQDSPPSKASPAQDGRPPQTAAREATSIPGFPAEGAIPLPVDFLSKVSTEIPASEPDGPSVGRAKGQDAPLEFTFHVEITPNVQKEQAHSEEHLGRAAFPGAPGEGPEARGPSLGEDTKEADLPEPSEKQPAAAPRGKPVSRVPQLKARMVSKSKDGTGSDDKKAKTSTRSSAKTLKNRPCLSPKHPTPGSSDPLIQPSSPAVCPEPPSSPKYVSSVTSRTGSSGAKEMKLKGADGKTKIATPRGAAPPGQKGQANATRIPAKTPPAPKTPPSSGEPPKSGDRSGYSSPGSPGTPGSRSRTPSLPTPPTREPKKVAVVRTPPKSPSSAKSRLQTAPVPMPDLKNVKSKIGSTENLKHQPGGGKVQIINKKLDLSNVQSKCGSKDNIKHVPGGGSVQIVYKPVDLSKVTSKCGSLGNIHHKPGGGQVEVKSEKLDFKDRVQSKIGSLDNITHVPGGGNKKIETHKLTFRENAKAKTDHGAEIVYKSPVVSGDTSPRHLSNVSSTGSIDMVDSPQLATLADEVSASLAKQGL
UniProt P05161, whole entry: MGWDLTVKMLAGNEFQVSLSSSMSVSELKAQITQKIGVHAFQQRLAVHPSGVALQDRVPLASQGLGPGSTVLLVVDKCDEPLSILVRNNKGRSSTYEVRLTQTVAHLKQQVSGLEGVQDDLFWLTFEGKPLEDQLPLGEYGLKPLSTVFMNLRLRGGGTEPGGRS
UniProt P06737: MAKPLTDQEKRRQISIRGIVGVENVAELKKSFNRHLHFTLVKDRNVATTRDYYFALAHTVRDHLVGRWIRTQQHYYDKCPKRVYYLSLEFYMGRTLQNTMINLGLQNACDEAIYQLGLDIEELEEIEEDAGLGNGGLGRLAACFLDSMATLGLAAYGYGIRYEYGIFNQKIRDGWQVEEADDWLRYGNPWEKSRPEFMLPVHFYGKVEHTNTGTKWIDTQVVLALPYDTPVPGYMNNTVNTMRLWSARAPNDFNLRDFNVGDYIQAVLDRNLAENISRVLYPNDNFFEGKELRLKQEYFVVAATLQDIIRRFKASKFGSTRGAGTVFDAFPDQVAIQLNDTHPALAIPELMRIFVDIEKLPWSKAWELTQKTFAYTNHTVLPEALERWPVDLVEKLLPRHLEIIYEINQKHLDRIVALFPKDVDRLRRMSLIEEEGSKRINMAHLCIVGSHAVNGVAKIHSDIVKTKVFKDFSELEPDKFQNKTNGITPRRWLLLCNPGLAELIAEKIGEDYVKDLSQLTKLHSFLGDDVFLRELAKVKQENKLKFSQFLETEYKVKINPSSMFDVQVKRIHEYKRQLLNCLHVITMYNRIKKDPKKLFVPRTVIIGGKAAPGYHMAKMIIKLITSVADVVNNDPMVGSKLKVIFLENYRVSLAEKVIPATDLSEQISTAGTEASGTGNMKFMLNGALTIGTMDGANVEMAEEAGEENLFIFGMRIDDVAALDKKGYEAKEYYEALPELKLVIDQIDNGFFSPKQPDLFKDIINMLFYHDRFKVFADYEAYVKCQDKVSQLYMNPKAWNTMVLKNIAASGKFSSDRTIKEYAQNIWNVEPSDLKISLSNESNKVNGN
UniProt P12081: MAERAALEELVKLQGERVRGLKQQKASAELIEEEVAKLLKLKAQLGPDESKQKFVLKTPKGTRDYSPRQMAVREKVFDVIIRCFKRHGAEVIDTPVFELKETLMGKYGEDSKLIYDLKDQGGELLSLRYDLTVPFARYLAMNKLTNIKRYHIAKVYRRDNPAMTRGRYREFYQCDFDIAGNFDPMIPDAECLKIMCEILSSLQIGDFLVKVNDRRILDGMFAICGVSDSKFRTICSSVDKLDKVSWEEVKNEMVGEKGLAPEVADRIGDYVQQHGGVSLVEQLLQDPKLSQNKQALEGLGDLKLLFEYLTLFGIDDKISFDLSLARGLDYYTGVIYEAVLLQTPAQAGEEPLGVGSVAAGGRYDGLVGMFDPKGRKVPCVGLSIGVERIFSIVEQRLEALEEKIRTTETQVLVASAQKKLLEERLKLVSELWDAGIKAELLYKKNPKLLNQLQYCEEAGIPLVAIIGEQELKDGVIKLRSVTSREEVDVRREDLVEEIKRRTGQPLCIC
UniProt P04066: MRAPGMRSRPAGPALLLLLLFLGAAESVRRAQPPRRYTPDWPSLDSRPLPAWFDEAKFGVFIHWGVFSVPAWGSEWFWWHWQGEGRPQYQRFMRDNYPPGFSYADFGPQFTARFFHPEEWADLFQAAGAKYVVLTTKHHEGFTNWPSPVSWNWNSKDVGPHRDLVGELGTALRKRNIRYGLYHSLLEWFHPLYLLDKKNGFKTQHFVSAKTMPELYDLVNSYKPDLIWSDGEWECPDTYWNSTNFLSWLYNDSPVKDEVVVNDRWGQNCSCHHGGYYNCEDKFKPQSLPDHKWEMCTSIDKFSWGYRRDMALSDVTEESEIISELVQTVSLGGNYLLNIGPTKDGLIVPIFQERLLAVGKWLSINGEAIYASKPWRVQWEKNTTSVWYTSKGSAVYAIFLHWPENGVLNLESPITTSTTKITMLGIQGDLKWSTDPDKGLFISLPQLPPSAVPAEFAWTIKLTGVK

± gives the standard deviation of the averaged measurements. Only a part is listed here, and it is no random draw. Most values lie at the level of the controls, where differences are scatter.

Compound in one assay: Nc1ncnc2c1ncn2[C@@H]1O[C@H](COP(=O)(O)OP(=O)(O)NP(=O)(O)O)[C@@H](O)[C@H]1O [adenylyl imidodiphosphate]
Put plainly: NP40-soluble protein abundance relative to vehicle (solubility fold change) (ratio); higher = more soluble protein in presence of AMP-PNP. As to conditions: concentration: 0.1mM. The method in brief:
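In three independent experiments, Jurkat crude lysate made by Dounce homogenisation was treated for 10 min at room temperature and then 3 min at 37 °C with eight concentrations ranging from 0.1 to 10 mM. It was then solubilised with 0.8% NP40 plus benzonase for 60 min at 4 °C and ultracentrifuged. The supernatant was TMT-labelled for LC-MS/MS, and each value is the fold change against the detergent-processed vehicle for the same replicate, using vsn-normalised intensities.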
In the case of MYL6B (UniProt P14649), the NP40-soluble protein abundance is 1.01 ± 0.023.

Turning to RB1 (UniProt P06400), the NP40-soluble protein abundance was found to be 1 ± 0.011.

Regarding UniProt P14618 and related entries, the NP40-soluble protein abundance amounted to 1.05 ± 0.072.

On to ASS1 (UniProt P00966), for which the NP40-soluble protein abundance was found to be 1.012 ± 0.008.

Regarding UniProt P09693, the NP40-soluble protein abundance is 0.938 ± 0.074.

Take HSPA4L (UniProt O95757): the NP40-soluble protein abundance turned out to be 0.982 ± 0.036.

As to EEF2 (UniProt P13639), the NP40-soluble protein abundance amounted to 0.9858 ± 0.0067.

For the target MIF (UniProt P14174), the NP40-soluble protein abundance came out at 1.04 ± 0.047.

In the case of MGMT (UniProt P16455), the NP40-soluble protein abundance came to 0.977 ± 0.018.

Turning to GOT2 (UniProt P00505), the NP40-soluble protein abundance turned out to be 1.01 ± 0.011.

As for UniProt P04083 and related entries, the NP40-soluble protein abundance amounted to 1.01 ± 0.02.

With UniProt P14735 and related entries, the NP40-soluble protein abundance came out at 1.01 ± 0.014.

For UniProt P08240, the NP40-soluble protein abundance was 0.98 ± 0.025.

On to CREB1 (UniProt P16220), for which the NP40-soluble protein abundance turned out to be 1.01 ± 0.038.

Consider UniProt O95793 and related entries, for which the NP40-soluble protein abundance turned out to be 1.01 ± 0.017.

With XRCC6 (UniProt P12956), the NP40-soluble protein abundance came out at 0.78 ± 0.16.

GLUD1 (UniProt P00367): the NP40-soluble protein abundance amounted to 0.978 ± 0.012.

UniProt P11177 and related entries: the NP40-soluble protein abundance is 1.07 ± 0.094.

Turning to UniProt P13716 and related entries, the NP40-soluble protein abundance is 1.02 ± 0.031.

As for NUDT3 (UniProt O95989), the NP40-soluble protein abundance was 1 ± 0.086.

For the target UniProt P14859 and related entries, the NP40-soluble protein abundance was 0.9958 ± 0.0059.

As for UniProt P05026 and related entries, the NP40-soluble protein abundance was 0.98 ± 0.039.

For EPRS (UniProt P07814), the NP40-soluble protein abundance was 1.02 ± 0.037.

Regarding HEXB (UniProt P07686), the NP40-soluble protein abundance was 1.03 ± 0.012.

SNRPB2 (UniProt P08579): the NP40-soluble protein abundance came to 1.02 ± 0.049.

With COX6C (UniProt P09669), the NP40-soluble protein abundance came out at 1.08 ± 0.16.

As for UniProt O96017 and related entries, the NP40-soluble protein abundance turned out to be 0.979 ± 0.043.

Turning to “UniProt P10636-2|P10636-4|P10636-7|P10636-9|P10636-6”, the NP40-soluble protein abundance is 0.977 ± 0.035.

PCNA (UniProt P12004): the NP40-soluble protein abundance turned out to be 0.9859 ± 0.0098.

Turning to SKI (UniProt P12755), the NP40-soluble protein abundance was 0.9961 ± 0.0028.

Consider SLC25A6 (UniProt P12236), for which the NP40-soluble protein abundance turned out to be 0.972 ± 0.045.

For the target UniProt P05161 and related entries, the NP40-soluble protein abundance came out at 1.02 ± 0.036.

As for CTSB (UniProt P07858), the NP40-soluble protein abundance turned out to be 1.01 ± 0.025.

For UniProt P06737 and related entries, the NP40-soluble protein abundance was determined as 1.03 ± 0.024.

Consider HARS (UniProt P12081), for which the NP40-soluble protein abundance came out at 0.982 ± 0.012.

For the target UniProt P00519 and related entries, the NP40-soluble protein abundance came to 1.02 ± 0.015.

Regarding UniProt P16383 and related entries, the NP40-soluble protein abundance came to 1.01 ± 0.025.

As for FUCA1 (UniProt P04066), the NP40-soluble protein abundance was 0.994 ± 0.018.

The assay is the same for the next values; noted with them: concentration: 0.5mM.
Turning to MYL6B (UniProt P14649), the NP40-soluble protein abundance stood at 1.04 ± 0.073.

With RB1 (UniProt P06400), the NP40-soluble protein abundance is 1 ± 0.022.

Turning to UniProt P14618 and related entries, the NP40-soluble protein abundance came to 0.929 ± 0.11.

As for ASS1 (UniProt P00966), the NP40-soluble protein abundance turned out to be 1.01 ± 0.017.

For UniProt P09693, the NP40-soluble protein abundance was 0.999 ± 0.076.

Turning to HSPA4L (UniProt O95757), the NP40-soluble protein abundance was 1.01 ± 0.049.

For EEF2 (UniProt P13639), the NP40-soluble protein abundance came out at 0.995 ± 0.021.

As to MIF (UniProt P14174), the NP40-soluble protein abundance turned out to be 1.02 ± 0.097.

With MGMT (UniProt P16455), the NP40-soluble protein abundance amounted to 1 ± 0.051.

As for GOT2 (UniProt P00505), the NP40-soluble protein abundance was 1 ± 0.035.

As to UniProt P04083 and related entries, the NP40-soluble protein abundance worked out at 0.982 ± 0.082.

Turning to UniProt P14735 and related entries, the NP40-soluble protein abundance came to 0.99 ± 0.043.

Turning to UniProt P08240, the NP40-soluble protein abundance is 0.9671 ± 0.0082.

In the case of CREB1 (UniProt P16220), the NP40-soluble protein abundance turned out to be 1.04 ± 0.016.

For the target UniProt O95793 and related entries, the NP40-soluble protein abundance turned out to be 0.9955 ± 0.0074.

Turning to XRCC6 (UniProt P12956), the NP40-soluble protein abundance worked out at 1.01 ± 0.066.

On to GLUD1 (UniProt P00367), for which the NP40-soluble protein abundance came out at 0.966 ± 0.024.

As to UniProt P11177 and related entries, the NP40-soluble protein abundance was found to be 1.04 ± 0.093.

As for UniProt P13716 and related entries, the NP40-soluble protein abundance turned out to be 1 ± 0.025.

Turning to NUDT3 (UniProt O95989), the NP40-soluble protein abundance was determined as 0.994 ± 0.04.

As for UniProt P14859 and related entries, the NP40-soluble protein abundance was 1.03 ± 0.037.

With UniProt P05026 and related entries, the NP40-soluble protein abundance amounted to 1.05 ± 0.095.

Take EPRS (UniProt P07814): the NP40-soluble protein abundance is 1.02 ± 0.067.

For the target HEXB (UniProt P07686), the NP40-soluble protein abundance was determined as 0.994 ± 0.024.

As for SNRPB2 (UniProt P08579), the NP40-soluble protein abundance came out at 0.975 ± 0.039.

In the case of COX6C (UniProt P09669), the NP40-soluble protein abundance came out at 1.03 ± 0.14.

UniProt O96017 and related entries: the NP40-soluble protein abundance came to 0.975 ± 0.059.

For “UniProt P10636-2|P10636-4|P10636-7|P10636-9|P10636-6”, the NP40-soluble protein abundance worked out at 1.02 ± 0.07.

Regarding PCNA (UniProt P12004), the NP40-soluble protein abundance turned out to be 0.993 ± 0.011.

As for SKI (UniProt P12755), the NP40-soluble protein abundance worked out at 0.9979 ± 0.0082.

Regarding SLC25A6 (UniProt P12236), the NP40-soluble protein abundance is 0.957 ± 0.057.

In the case of UniProt P05161 and related entries, the NP40-soluble protein abundance amounted to 0.999 ± 0.054.

As to CTSB (UniProt P07858), the NP40-soluble protein abundance came out at 1.02 ± 0.025.

On to UniProt P06737 and related entries, for which the NP40-soluble protein abundance is 1 ± 0.05.

HARS (UniProt P12081): the NP40-soluble protein abundance was determined as 1.02 ± 0.016.

UniProt P00519 and related entries: the NP40-soluble protein abundance was found to be 1.03 ± 0.031.

Turning to UniProt P16383 and related entries, the NP40-soluble protein abundance was determined as 1.05 ± 0.065.

As to FUCA1 (UniProt P04066), the NP40-soluble protein abundance was determined as 0.99 ± 0.046.
